PubChem BioAssay AID504808 – Drosophila RNAi Screening Center | 2011

- Test: 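Genes whose loss lifts activity of an E2F-responsive reporter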 (primary screen)
- Cell system: Drosophila S2 cells
- Knock-down reagent: long dsRNA against Drosophila genes
- Measurement: 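Dual luciferase plate measurements; E2F-specific signal taken as firefly over Renilla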
- Direction: E2F firefly: higher = more E2F reporter activity; Renilla normaliser: higher = more normaliser reporter signal
- Hit rule: 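Called active if the normalised E2F reporter went up by over 50%; the cutoff is arbitrary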
The deposit covers about 21,000 reagents; this is an unselected part of those with a known target gene and a result. In the full data, 18 (0.084%) were called active. 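Raw counts without plate normalisation, one of two replicates; the ratio scores behind the calls were not deposited.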 The numbers tell different reagents against one gene apart. A plus sign joins genes that one reagent is predicted to hit. Not stated in the record: the amount of reagent, the time to read-out.

unc-13-4A #1 scored E2F firefly, rep 1 = 1.02e5; Renilla normaliser, rep 1 = 3826; inactive. Silencing of unc-13-4A #2 gave: E2F firefly, rep 1 = 95516; Renilla normaliser, rep 1 = 3442; inactive. After knock-down of unc-13-4A #3 the results were E2F firefly, rep 1 = 67545; Renilla normaliser, rep 1 = 3383; inactive. With knock-down of unc-13-4A #4, the record shows E2F firefly, rep 1 = 95676; Renilla normaliser, rep 1 = 4308; inactive. Against sca (scabrous) the deposit lists E2F firefly, rep 1 = 95064; Renilla normaliser, rep 1 = 4167; inactive. For Tsp66A + CG42661 + CG42660, the entry reads E2F firefly, rep 1 = 95507; Renilla normaliser, rep 1 = 3598; inactive.

No new results follow: an excerpt of the list.
unc-13-4A #4 → E2F firefly, rep 1: 95676; Renilla normaliser, rep 1: 4308; Outcome: inactive
sca (scabrous) → E2F firefly, rep 1: 95064; Renilla normaliser, rep 1: 4167; Outcome: inactive

Additional entries follow:
CG14882 showed E2F firefly, rep 1 = 71023; Renilla normaliser, rep 1 = 3416; inactive. CG15888 gave E2F firefly, rep 1 = 1.03e5; Renilla normaliser, rep 1 = 6782; inactive. After knock-down of PDZ-GEF (PDZ domain-containing guanine nucleotide exchange factor), the screen gave E2F firefly, rep 1 = 1.50e5; Renilla normaliser, rep 1 = 4693; inactive. After knock-down of pb (proboscipedia) #1, the screen gave E2F firefly, rep 1 = 70679; Renilla normaliser, rep 1 = 3637; inactive. After knock-down of pb (proboscipedia) #2, the screen gave E2F firefly, rep 1 = 1.35e5; Renilla normaliser, rep 1 = 5797; inactive. For inaF-C, the values are E2F firefly, rep 1 = 81390; Renilla normaliser, rep 1 = 2430; inactive.
